# According to PubChem BioAssay AID504467 (National Center for Advancing Translational Sciences (NCATS), 2011):
# In all, about 330,000 compounds went through this assay and about 7,700 (2.3%) were called active. Inconclusive results, whose numbers are uncertain, are shown with a selection of clear calls. Calls follow the shape of the dose curve; as a rule, active = well fitted inhibition curve with a large enough effect; inconclusive = small, poorly fitted or top-dose-only effect, or effect the other way; inactive = flat fitted curve, though single readings scatter. Potencies beside an inconclusive call are fits to weak or partial responses and may not hold up.
# Assay: qHTS screen for small molecules that inhibit ELG1-dependent DNA repair in human embryonic kidney (HEK293T) cells expressing luciferase-tagged ELG1; also: nearly all actives have a fitted effect of over 55% in size
# Settings: HEK293T ELG1-luciferase reporter, luminescence, 16 h, DNA damage induced by 5-fluorouridine; series mostly up to 46.1 µM
# Summary of the method: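 DMSO vehicle served as the neutral condition. Each well held 2,000 cells given 5-fluorouridine plus compound; after 16 hr at 37 °C/5% CO2, ONE-Glo was added and luciferase measured 30 min later.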
# Potency is read from the fitted curve at half-maximal effect.
row,Structure (SMILES),Potency
1,Cc1snc(SCc2ccc(F)cc2)c1C#N,"inconclusive: 32.6 µM [activator, partial curve, poor fit]"
2,CCOC(=O)N1CCN(S(=O)(=O)c2ccc(OCC)c3ccccc23)CC1,inactive
3,C#CCOCCOCCOCCNc1nc(N2CCOCC2)nc(N2CCN(C(=O)CCCCCCCCCCNC(=O)[C@H](CO)n3cc(CCCSC)nn3)CC2)n1,"inconclusive: 20 µM [inhibitor, single point]"
4,CC(=O)N(CCc1ccccc1)Cc1cc2ccc(C)c(C)c2[nH]c1=O,"inconclusive: 35.5 µM [inhibitor, partial curve, poor fit]"
5,C/C(Cl)=C\Cn1c(Nc2cccc(C)c2)nc2c1c(=O)n(C)c(=O)n2C,active: 9.2 µM
6,Cc1ccc(NC2=C(C(=O)c3ccccc3)N(C)S(=O)(=O)c3ccccc32)cc1,inactive
7,COc1ccc(/C=C2\SC(=O)N(CCNC(=O)Cn3[nH]c(=O)c4ccccc4c3=O)C2=O)cc1,inactive
8,O=C(c1cc2ccccc2cc1O)N1CCN(c2ccc([N+](=O)[O-])cc2)CC1,inactive
9,Cc1ccc(NC(=O)C(C)OC(=O)COc2cccc(C(F)(F)F)c2)cc1 (centres undefined),"inconclusive: 16.4 µM [activator, single point]"
10,O=C1c2ccccc2C(=O)N1C/C=C/CN1C(=O)c2ccccc2C1=O,"inconclusive: 1.84 µM [activator, partial curve, poor fit]"
11,COCc1cc(C)nc(OCC(=O)N/N=C/c2ccc(O)cc2O)c1C#N,"inconclusive: 29.1 µM [inhibitor, single point]"
12,CNc1c(N=Cc2cccnc2)c(=O)n(C)c(=O)n1C,inactive
13,NC1=NC(=Nc2ccc(S(=O)(=O)N3CCOCC3)cc2)c2ccccc21,"inconclusive: 29.1 µM [activator, single point]"
14,O=C(O)c1ccc(NC(=O)C2C3CCC(O3)C2C(=O)O)cc1 (centres undefined),"inconclusive: 23.1 µM [activator, single point]"
15,COc1ccc(NC(=S)Nc2ccc3nccnc3c2)cc1,"inconclusive: 14.6 µM [inhibitor, partial curve, poor fit]"
16,O=C(Nc1ccc2c(c1)ncn2-c1ccccc1)c1ccco1,"inconclusive: 16.4 µM [activator, partial curve]"
17,O=C1N=c2ccccc2=C1c1sc(Nc2ccc(O)cc2)nc1O,"inconclusive: 18.3 µM [activator, single point]"
18,CCCn1c(NCc2ccc3c(c2)OCO3)nc2ccccc21,"inconclusive: 32.6 µM [activator, single point]"
19,COc1ccc(NC(=S)N2CCN(C/C=C/c3ccccc3)CC2)c(OC)c1,"inconclusive: 29.1 µM [inhibitor, single point]"
20,COc1ccc(Cn2c(=O)c3cccnc3n(Cc3ccc([N+](=O)[O-])cc3)c2=O)cc1,"inconclusive: 32.6 µM [activator, partial curve, poor fit]"
21,O=C(CCN=C1NS(=O)(=O)c2ccccc21)OCc1nnc(-c2ccccc2)o1,"inconclusive: 23.1 µM [activator, single point]"
22,COc1ccc(C2C(=O)c3ccccc3C2=O)cc1,"inconclusive: 29.1 µM [activator, single point]"
23,CNC(=O)c1sc(Nc2ccc(OCc3ccccc3)cc2)nc1C,active: 8.2 µM

row,Structure (SMILES),Potency
1,CCCCN(C(=O)c1ccco1)c1nnc(-c2cc(OC)c(OC)c(OC)c2)s1,"inconclusive: 4.11 µM [inhibitor, full curve]"
2,COc1ccccc1C(=O)NC(=O)Nc1nc(-c2ccccc2)cc(C(F)(F)F)n1,inactive
3,O=C(O)CCCc1nc(-c2ccccc2)no1,inactive
4,CCc1ccccc1OCC(=O)Nc1cc(S(=O)(=O)N(CC)CC)ccc1N1CCOCC1,active: 2.59 µM
5,CCN(CC(=O)Nc1ccc2c(c1)OCCO2)C(=O)CCOc1ccccc1,"inconclusive: 12.6 µM [activator, partial curve, poor fit]"
6,Cc1cc(C)c(C#N)c(SCC(=O)c2ccc(Cl)cc2Cl)n1,"inconclusive: 29.1 µM [inhibitor, single point]"
7,Cn1c(CCNC(=O)c2ccccc2)nc2ccccc21,"inconclusive: 32.6 µM [activator, single point]"
8,CC(/C=N/NC(=O)Cc1cc(=O)[nH][nH]1)=C\c1ccccc1,inactive
9,CC(=O)c1cc2c(cc1NC(=O)CN1CCN(c3cccc(C(F)(F)F)c3)CC1)OCO2,"inconclusive: 14.6 µM [inhibitor, partial curve]"
10,CCOc1cc(/C=C/c2nc3cc(C)c(C)cc3s2)ccc1OCC(=O)N1CCOCC1,"inconclusive: 29.1 µM [inhibitor, single point]"
11,CC(C)(C)NC(=O)c1cc(NC(=O)c2cccs2)cc(NC(=O)c2cccs2)c1,"inconclusive: 18.3 µM [inhibitor, single point]"
12,Cc1nn(C)c(Cl)c1CN1CCCC(C(=O)Nc2ccc(-c3cscn3)cc2)C1 (centres undefined),"inconclusive: 29.1 µM [inhibitor, single point]"
13,Cc1ccc(S(=O)(=O)n2nccc2-c2c(-c3ccc(Cl)cc3)noc2C)cc1,"inconclusive: 20.6 µM [inhibitor, single point]"
14,Cc1cc(NC(=S)NC(=O)C2CC2)ccc1Br,"inconclusive: 16.4 µM [activator, single point]"
15,CC(C)(C)OC(=O)[C@H](Cc1ccccc1)NC(=O)c1nc[nH]c1C(=O)N1CCc2ccccc2C1,inactive
16,COc1cc(OC)cc(C(=O)Nc2ccccc2C(=O)NCc2cccnc2)c1,"inconclusive: 23.1 µM [inhibitor, partial curve]"
17,COc1ccc(CNC(=O)CSc2ncn[nH]2)cc1OC,inactive
18,CC(=O)c1ccc(NC(=O)CSc2nnc(NC(=O)CN3CCOCC3)s2)cc1,"inconclusive: 5.17 µM [activator, single point]"
19,CC(=O)c1ccc(NC(=O)C(C)Sc2ccccn2)cc1 (centres undefined),"inconclusive: 23.1 µM [activator, partial curve]"
20,O=C(Nc1ccc(Cl)cc1C(F)(F)F)c1ccccc1,"inconclusive: 18.4 µM [activator, single point]"
21,C/C=C\C=C/C(=O)Nc1cccc(C2=NOC3(C2)C[C@@H](C(N)=O)N(C(=O)CCCCC)C3)c1 (some centres undefined),inactive
22,COc1ccc(-c2cc3nc(-c4ccccc4)cc(N4CCC5(CC4)OCCO5)n3n2)cc1,active: 20.6 µM
23,O=C(OCc1nnc(-c2ccccc2)o1)c1cc(=O)c2ccccc2o1,"inconclusive: 18.4 µM [activator, single point]"

# 4 entries drawn at random from those above, as already listed:
row,Structure (SMILES),Potency
9,CC(=O)c1cc2c(cc1NC(=O)CN1CCN(c3cccc(C(F)(F)F)c3)CC1)OCO2,"inconclusive: 14.6 µM [inhibitor, partial curve]"
15,CC(C)(C)OC(=O)[C@H](Cc1ccccc1)NC(=O)c1nc[nH]c1C(=O)N1CCc2ccccc2C1,inactive
10,CCOc1cc(/C=C/c2nc3cc(C)c(C)cc3s2)ccc1OCC(=O)N1CCOCC1,"inconclusive: 29.1 µM [inhibitor, single point]"
21,C/C=C\C=C/C(=O)Nc1cccc(C2=NOC3(C2)C[C@@H](C(N)=O)N(C(=O)CCCCC)C3)c1 (some centres undefined),inactive

# More structures follow.

row,Structure (SMILES),Potency
1,O=C(NCc1ccccc1Cl)C(=O)NCC1OCCCN1S(=O)(=O)c1cccs1 (centres undefined),inactive
2,Cc1cccc(N2CCN(C(=O)NC3CCCCC3)CC2C)c1 (centres undefined),inactive
3,Cc1ccc(Nc2nc(Cl)nc(NC(C)(C)C)n2)cc1,"inconclusive: 18.3 µM [activator, partial curve]"
4,COCCn1c(SCc2cc(C(C)=O)ccc2OC)nc2cc(Cl)ccc2c1=O,"inconclusive: 23.1 µM [inhibitor, single point]"
5,CNC(=O)c1cc2cc(OC)ccc2oc1=N,"inconclusive: 16.4 µM [activator, partial curve, poor fit]"
6,Clc1ccc(-c2csc(-c3cccnc3)n2)s1,"inconclusive: 23.1 µM [activator, single point]"
7,CCOc1ccc(NC(=O)[C@H](Cc2ccccc2)NC(=O)C2CCNCC2)cc1,"inconclusive: 20.6 µM [activator, partial curve, poor fit]"
8,O=C(N/N=C/c1ccccc1C(=O)O)c1cccc(S(=O)(=O)N2CCOCC2)c1,inactive
9,CCn1cc(C(=O)O)c(=O)c2cnc(N3CCN(C(=S)NC(=O)c4ccccc4)CC3)nc21,inactive
10,CC(OC(=O)C1CCN(c2ccc(C(F)(F)F)cn2)CC1)C(=O)c1ccccc1 (centres undefined),inactive
11,Cc1ccccc1NC(=O)Nc1ccccc1N1CCCCC1,active: 18.3 µM
12,COc1ccc2cc(C(=O)NCCc3ccccc3)[nH]c2c1,"inconclusive: 23.1 µM [activator, single point]"
13,COc1ccc(C2SCC(=O)N2c2nc3ccccc3s2)cc1 (centres undefined),"inconclusive: 20.6 µM [activator, single point]"
14,Cc1ccc2nc(N(CCCN(C)C)C(=O)c3sc4ccccc4c3Cl)sc2c1,"inconclusive: 16.4 µM [activator, partial curve]"
15,CCc1[nH]nc(C(=O)N2CCCC(C(=O)c3cccc(OC(C)C)c3)C2)c1C (centres undefined),inactive
16,CC1CCN(CCOc2ccc(OCc3ccccc3)cc2)CC1,"inconclusive: 10.3 µM [activator, partial curve]"
17,Cc1nnc2ccc(-c3cccc(NC(=O)Cc4cccs4)c3)nn12,"inconclusive: 25.9 µM [activator, single point]"
18,Cc1ccc(C)c(NC(=O)CSc2nc3ccc(N4C(=O)c5ccccc5C4=O)cc3s2)c1,inactive
19,O=S(=O)(NNc1nccc(C(F)(F)F)n1)c1cccc(Cl)c1Cl,inactive
20,COc1ccccc1NC(=O)N(C1CCCC1)C1CCN(C(C)=O)CC1,inactive
21,Cc1cc(NC(=O)c2cccnc2)ccc1Br,"inconclusive: 6.51 µM [activator, partial curve]"
22,C/C(=N\NC(=O)c1cccc(C)c1)c1ccc(N2CCOCC2)cc1,"inconclusive: 20.6 µM [activator, single point]"
23,O=C(O)CN1C(=O)/C(=C\c2cccc(OCc3ccccc3)c2)SC1=S,"inconclusive: 3.55 µM [activator, single point]"
